Measured values published in patent US12635693B2, “Activated ferrate compositions and methods” (THE TEXAS A&M UNIVERSITY SYSTEM, priority 2020, dated 2026).

Assay: Removal (oxidation) of Carbamazepine (CBZ) by ferrate with or without amino acids, HPLC

For `O=C(O)[C@@H]1CCCN1` [proline], the “influence of amino acid on removal of CBZ by ferrate, compared to ferrate only (control)” value ([amino acid]=100.0 μM, [CBZ]=5.0 μM, [ferrate]=100.0 μM, pH 9.0, 1 min) was “demonstrated activation of ferrate; also recorded: enhanced removal” and the “oxidation of CBZ (change versus molar ratio 1.0)” value (molar ratio of proline to ferrate 2.0, [ferrate]=100.0 μM, pH 9.0) was “decreased”.

“Also recorded” adds a separate entry of the source.
